# Data published in patent US20220118080A1 (MAYO FOUNDATION FOR MEDICAL EDUCATION AND RESEARCH, published 2022).
# The chains behind the UniProt entries cited, without tags or fusion partners. Where a name states a change or a piece, a line headed by the entry shows the natural chain unless it says otherwise. Residues count along the entry.
# UniProt P08362: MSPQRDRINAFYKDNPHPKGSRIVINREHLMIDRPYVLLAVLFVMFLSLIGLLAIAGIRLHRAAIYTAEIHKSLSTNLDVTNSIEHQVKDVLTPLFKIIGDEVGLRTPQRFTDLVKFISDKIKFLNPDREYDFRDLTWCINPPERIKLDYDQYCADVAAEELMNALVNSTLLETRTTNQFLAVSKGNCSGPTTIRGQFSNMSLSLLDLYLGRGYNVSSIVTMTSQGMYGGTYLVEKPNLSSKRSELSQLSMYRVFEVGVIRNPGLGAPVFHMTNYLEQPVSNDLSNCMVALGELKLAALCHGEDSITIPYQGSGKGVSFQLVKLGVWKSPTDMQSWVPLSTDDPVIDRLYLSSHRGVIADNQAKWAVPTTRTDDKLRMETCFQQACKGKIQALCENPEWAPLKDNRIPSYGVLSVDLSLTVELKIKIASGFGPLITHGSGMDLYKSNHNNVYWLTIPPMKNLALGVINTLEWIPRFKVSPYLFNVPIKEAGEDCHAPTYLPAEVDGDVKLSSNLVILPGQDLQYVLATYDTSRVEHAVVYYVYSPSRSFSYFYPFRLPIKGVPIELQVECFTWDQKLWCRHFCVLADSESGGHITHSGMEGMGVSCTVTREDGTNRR
# UniProt P15529, residues 35-328: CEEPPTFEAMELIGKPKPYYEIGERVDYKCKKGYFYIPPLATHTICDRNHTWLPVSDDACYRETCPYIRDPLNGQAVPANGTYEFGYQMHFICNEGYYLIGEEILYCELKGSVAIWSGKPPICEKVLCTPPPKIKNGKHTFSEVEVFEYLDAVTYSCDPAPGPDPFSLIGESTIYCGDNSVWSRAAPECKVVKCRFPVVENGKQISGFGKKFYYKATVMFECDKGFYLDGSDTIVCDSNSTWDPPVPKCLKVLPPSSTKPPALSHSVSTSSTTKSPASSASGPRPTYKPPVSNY
# Results are given in words; binding and its absence hold for the method and conditions named. Some results given as binding are weak or reduced against the parent protein; the word gives no strength.
# Target: recombinant soluble MeV-H H1 (measles virus) (UniProt P08362)
# Test: ELISA, receptor-Fc titrated on plastic-bound MeV-H
substance,measurement,value
CD46-Fc (from UniProt P15529 35-328) (Fc fusion),binding,binds
